Measured values: PubChem BioAssay AID540256 (National Center for Advancing Translational Sciences (NCATS), 2011)
Several values for one entry are separate records, joined by “and”; a condition that tells them apart may be missing. Identical values can stand only once. The whole screen tested about 300,000 compounds, of which about 3,700 (1.2%) were called active. The inconclusive results got no clear call from the source; some entries with a clear call stand among them for comparison. The call rests on the fitted dose curve; tested in HEK293 cells. Potencies beside an inconclusive call are fits to weak or partial responses and may not hold up.

Assay: qHTS for Inhibitors of binding or entry into cells for Lassa Virus; further: nearly all actives have a fitted effect of over 50% in size
Details: Lassa virus pseudotype entry inhibition, cell reporter; activity change, negative = inhibition: at 37.9 µM (top of the series) unless noted
On the % scale 0 is the no-effect control and ±100 the full control effect; potency means the concentration at half of the fitted maximal effect.

Row | SMILES | Potency | activity change, negative = inhibition
1 | COc1ccccc1C(=O)NC(=S)NNC(=O)c1sc2ccccc2c1Cl | inconclusive: 6.31 µM [inhibitor, single point] | –
2 | CC1(C)N=C(SCc2ccc(Cl)cc2)c2ccccc2N1 | – | inactive: 12.6% [at 46.1 µM]
3 | Cc1nnc(N(C)C(=O)c2cnccn2)s1 | inconclusive: 5.62 µM [activator, partial curve, poor fit] | –
4 | CCC(Sc1nnc2c3ccccc3n(CC)c2n1)C(=O)Nc1sc2c(c1C#N)CCCC2 (stereo not given) | inconclusive: 32.6 µM [inhibitor, single point] | –
5 | Cc1c(C(=O)N2CCCCCC2)c(S(=O)(=O)Nc2cccc(C#N)c2)c(C)n1C | – | inactive: 8.01% [at 46.1 µM]
6 | COc1cc(C(=O)OCn2nnc3ccccc3c2=O)cc(OC)c1OC | inconclusive: 15.8 µM [inhibitor, partial curve, poor fit] | –
7 | CCN1C(=O)/C(=C\N2CCCCCC2)SC1=S | inconclusive: 22.4 µM [activator, single point] | –
8 | CSc1n[nH]c(NC(=O)c2c(-c3c(Cl)cccc3Cl)noc2C)n1 | – | inactive: 2.85%
9 | CCCn1c(=O)c(C#N)cn(C2CC2)c1=O | – | inactive: 11.7% [at 46.1 µM]
10 | CCc1ccc(NC(=O)c2cnn(-c3c(C)cccc3C)c2C2CCN(C(=O)OC(C)(C)C)CC2)cc1 | inconclusive: 5.62 µM [inhibitor, full curve] | –
11 | Cc1c(C(=O)NCc2ccc3c(c2)OCO3)oc2ccc(S(=O)(=O)N3CCCCCC3)cc12 | – | inactive: -26.9%
12 | CCC(=O)Nc1ccc(C(=O)OCc2ccccc2Cl)cc1 | inconclusive: 31.6 µM [inhibitor, single point] | –
13 | O=C(Nc1ccc(CN2CCCCC2)cc1)c1c(F)c(F)c(F)c(F)c1F | – | inactive: 20.3% [at 46.1 µM]
14 | COc1cc(CNCCCCO)ccc1OCc1ccccc1F | – | inactive: -8.04% [at 46.1 µM]
15 | CCOC(=O)c1[nH]c2c(c1Cc1ccccc1C)C(=O)CC(c1ccccc1)C2 (stereo not given) | – | inactive: 9.44% [at 46.1 µM]
16 | Cc1ccc(S(=O)(=O)c2c(CO)c(-c3ccccc3)nn2C)cc1 | inconclusive: 25.1 µM [inhibitor, partial curve, poor fit] | –
17 | COc1ccccc1CCNC(=O)C(=O)NCC1OCCCN1S(=O)(=O)c1ccc(F)cc1C (stereo not given) | inconclusive: 11.2 µM [inhibitor, partial curve, poor fit] | –
18 | COc1ccc(-c2cn3c(n2)sc2cc(C(=O)Nc4ccc(C)c(Cl)c4)ccc23)cc1 | – | inactive: 5.62% [at 46.1 µM]
19 | Cc1ccc2nc(-c3ccsc3)c(NC3CCCC3)n2c1 | – | inactive: 1.82%
20 | Cc1cccc(NC(=O)CSc2nnc(C3CC3)n2CC2CCCO2)c1C (stereo not given) | inconclusive: 35.5 µM [inhibitor, single point] | –
21 | COc1ccc(-c2cc3ccc(O)c(CN4CCCC(C)C4)c3oc2=O)cc1OC (stereo not given) | – | inactive: -1.77% [at 46.1 µM]
22 | O=C(NCc1cccc(Cl)c1)c1ccc(NC(=O)N2CCSc3ccccc32)cc1 | inconclusive: 5.01 µM [activator, single point] | –
23 | COc1ccc(Cc2nc3ccccc3n2Cc2ccccc2C)cc1 | inconclusive: 35.5 µM [inhibitor, single point] | –
24 | CC(Oc1ccccc1)C(=O)Nc1ccc(C(=O)OCc2cc(=O)n3nc(C4CC4)sc3n2)cc1 (stereo not given) | inconclusive: 1.12 µM [inhibitor, full curve, poor fit] | –

Row | SMILES | Potency | activity change, negative = inhibition
25 | NC(=O)CCN1CCN(CCOC2Cc3cc(Cl)ccc3Sc3ccccc32)CC1 (stereo not given) | inconclusive: 35.5 µM [inhibitor, single point] | –
26 | Nc1nc(-c2ccc3c(c2)CCO3)cs1 | inconclusive: 35.5 µM [activator, single point] | –
27 | CCOc1cc(CNCc2cccnc2)ccc1OCC(=O)NC(C)(C)C | – | inactive: 14.9%
28 | CN(C)c1cccc2c1C(=O)c1ccccc1C2=O | inconclusive: 35.5 µM [activator, single point] | –
29 | COc1ccc(Nc2nc3nonc3nc2N2CCCCC2)cc1 | inconclusive: 35.5 µM [inhibitor, partial curve, poor fit] | –
30 | O=C(CSc1ccccc1F)OCC(=O)N1CCN(C(=O)c2ccco2)CC1 | inconclusive: 11.2 µM [activator, single point] | –
31 | CC(c1ccon1)N(C)Cc1cn(Cc2ccccc2)nc1-c1ccc2c(c1)OCO2 (stereo not given) | inconclusive: 8.91 µM [inhibitor, partial curve, poor fit] | –
32 | Cc1ccc2c(C)c(C(=O)N3CCN(c4cnccn4)CC3)oc2c1C | – | inactive: -15.6%
33 | CC(=O)Nc1ccc(C(=O)OCC(=O)N(C)C2CCCCC2)cc1 | – | inactive: 19.4%
34 | COC(=O)c1cccc(NC(=O)/C(=C\c2ccccc2)NC(=O)c2ccccc2Cl)c1 | inconclusive: 14.6 µM [inhibitor, partial curve, poor fit] | –
35 | Oc1cccc2c(NC(=S)Nc3ccc(OC(F)F)cc3)cccc12 | inconclusive: 18.4 µM [inhibitor, single point] | –
36 | CCOC(=O)C1=C(CNCc2ccccc2Cl)NC(=O)NC1c1ccc2c(c1)OCO2 (stereo not given) | inconclusive: 12.6 µM [inhibitor, partial curve, poor fit] | –
37 | c1csc(CNc2ncnc3sccc23)c1 | inconclusive: 6.51 µM [inhibitor, partial curve, poor fit] | –
38 | O=C(NC1CCN(S(=O)(=O)c2ccc(F)cc2)CC1)c1ccco1 | inconclusive: 20 µM [activator, single point] | –
39 | c1ccc(Nc2nc3ccccc3[nH]2)nc1 | inconclusive: 1.41 µM [activator, full curve, poor fit] | –
40 | CC(C)c1ccccc1OCC(=O)Nc1nnc(C2CC2)s1 | inconclusive: 6.31 µM [inhibitor, full curve, poor fit] | –
41 | Cn1c(=O)c(=O)n(C)c2cc(NS(=O)(=O)c3ccc(Br)cc3)c(Cl)cc21 | – | inactive: -0.587% [at 46.1 µM]
42 | O=C(C1CC1)N1CCCC(c2ccc(Cl)cc2)=N1 | inconclusive: 14.1 µM [inhibitor, single point] | –
43 | C=CCOc1ccc(CN(C)CC(O)COc2cccc3ccccc23)cc1 (stereo not given) | inconclusive: 10 µM [inhibitor, partial curve, poor fit] | –
44 | CC(Nn1cnnc1)c1cc(Cl)ccc1O (stereo not given) | inconclusive: 4.47 µM [activator, full curve, poor fit] | –
45 | COc1cccc(CNC(=O)C(=O)NCC(c2ccco2)S(=O)(=O)c2ccccc2)c1 (stereo not given) | – | inactive: -19.2% [at 46.1 µM]
46 | O=C(CC1CC2CCC1C2)NCc1cccs1 (stereo not given) | – | inactive: 18.4%
47 | CC1(C)COC(/C=C/c2cccc([N+](=O)[O-])c2)=N1 | inconclusive: 35.5 µM [inhibitor, partial curve, poor fit] | –
48 | CC(C)c1nc(NCCN2CCOCC2)c(C#N)c2c1COC(C)(C)C2 | – | inactive: 6.37%

Row | SMILES | Potency | activity change, negative = inhibition
49 | CCn1c2ccccc2c2cc(/C=N/NC(=O)c3ccccc3)ccc21 | inconclusive: 14.6 µM [inhibitor, partial curve, poor fit] | –
50 | Cc1ccccc1N(CC(=O)Nc1ccc(S(=O)(=O)N2CCOCC2)cc1)S(C)(=O)=O | inconclusive: 5.01 µM [inhibitor, full curve, poor fit] | –
51 | O=C(Nc1onc2c1CCCC2)c1ccccc1 | inconclusive: 3.16 µM [activator, partial curve, poor fit] | –
52 | O=C(Nc1ccc(S(=O)(=O)N2CCOCC2)cc1)c1ccc([N+](=O)[O-])s1 | inconclusive: 2 µM [inhibitor, partial curve, poor fit] | –
53 | O=c1/c(=C/c2ccco2)sc2n1CN(c1ccccc1)CN=2 | – | inactive: -3.66%
54 | Cc1cccc(C)c1NC(=O)C(Cl)=C(Cl)Cl | – | inactive: -4.46%
55 | O=C(CCNS(=O)(=O)c1ccc2c(c1)CCC(=O)N2)Nc1ccc2c(c1)OCCO2 | – | inactive: 1.91%
56 | CCCCCCCC1Cc2ccccc2C(C(C(=O)OC)C(=O)OC)N1C(=O)OC (stereo not given) | inconclusive: 944 nM [inhibitor, partial curve, poor fit] and inconclusive: 0.8 nM [inhibitor] | –
57 | COc1ccccc1/C=C/C(=O)/C=C/c1ccccc1O | inconclusive: 10 µM [inhibitor, partial curve, poor fit] | –
58 | CN(C(=O)c1ccccn1)c1nnc(-c2cnccn2)s1 | inconclusive: 35.5 µM [activator, single point] | –
59 | O=C(Cc1ccc([N+](=O)[O-])cc1)Nc1ccc2c(c1)OCO2 | – | inactive: 18.8% [at 46.1 µM]
60 | Clc1ccc(/C=N/Nc2nnc(-c3ncc[nH]3)c3ccccc23)cc1 | – | inactive: -16.5%
61 | Cc1cc(C)nc(SCC(=O)NC2=NN=C(c3ccc(Br)cc3)CS2)n1 | – | inactive: -12.4%
62 | O=C(COc1ccc(S(=O)(=O)N2CCOCC2)cc1)NCCCn1ccnc1 | inconclusive: 15.8 µM [activator, partial curve, poor fit] | –
63 | CCOC(=O)c1ccc(NC(=S)N2CCSC2c2c(F)cc(F)cc2F)cc1 (stereo not given) | inconclusive: 35.5 µM [inhibitor, single point] | –
64 | O=C(NCC(c1ccco1)N1CCCCC1)c1ccc(COc2ccccc2)cc1 (stereo not given) | inconclusive: 35.5 µM [inhibitor, single point] | –
65 | COc1ccc(N=C2CCS(=O)(=O)c3sccc32)cc1 | inconclusive: 12.6 µM [activator, partial curve, poor fit] | –
66 | O=C(Cn1cnc2onc(-c3ccc(F)cc3)c2c1=O)N1CCN(c2ccc(F)cc2)CC1 | inconclusive: 35.5 µM [inhibitor, single point] | –
67 | COc1ccc(OC)c(NC(=O)c2ccc(NC(C)=O)cc2)c1 | – | inactive: -0.578%
68 | NS(=O)(=O)c1ccc(CNC(=O)c2cccc(S(=O)(=O)N3CCc4ccccc43)c2)cc1 | – | inactive: 5.39%
69 | COc1ccccc1CNC(=O)Cn1nc(C)n2cccc2c1=O | inconclusive: 35.5 µM [inhibitor, single point] | –
70 | CCC(C(=O)Nc1cc(C(F)(F)F)ccc1Cl)n1nc(C)c2sc3ccccc3c2c1=O (stereo not given) | – | inactive: -2.48% [at 46.1 µM]
